# This is one part of the list. Small differences around the control level are noise.
# Amino acid sequences for entries named in this document (tags omitted). A change or cut given only in a name is not applied to a line headed by its entry.
# UniProt Q16385, whole entry: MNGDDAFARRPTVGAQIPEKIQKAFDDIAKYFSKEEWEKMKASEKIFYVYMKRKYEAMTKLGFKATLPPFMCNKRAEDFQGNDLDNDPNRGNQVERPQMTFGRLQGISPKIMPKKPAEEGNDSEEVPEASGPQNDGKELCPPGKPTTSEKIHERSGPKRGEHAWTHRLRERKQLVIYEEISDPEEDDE
# UniProt Q15072: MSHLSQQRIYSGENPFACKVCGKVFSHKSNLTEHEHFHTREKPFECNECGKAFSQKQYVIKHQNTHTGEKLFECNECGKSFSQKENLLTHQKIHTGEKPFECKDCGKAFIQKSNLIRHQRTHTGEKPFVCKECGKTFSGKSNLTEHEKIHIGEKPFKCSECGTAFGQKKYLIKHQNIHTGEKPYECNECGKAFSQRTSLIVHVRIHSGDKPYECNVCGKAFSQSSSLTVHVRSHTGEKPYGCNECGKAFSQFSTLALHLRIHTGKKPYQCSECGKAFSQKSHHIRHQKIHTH
# UniProt Q15059, whole entry, looked up: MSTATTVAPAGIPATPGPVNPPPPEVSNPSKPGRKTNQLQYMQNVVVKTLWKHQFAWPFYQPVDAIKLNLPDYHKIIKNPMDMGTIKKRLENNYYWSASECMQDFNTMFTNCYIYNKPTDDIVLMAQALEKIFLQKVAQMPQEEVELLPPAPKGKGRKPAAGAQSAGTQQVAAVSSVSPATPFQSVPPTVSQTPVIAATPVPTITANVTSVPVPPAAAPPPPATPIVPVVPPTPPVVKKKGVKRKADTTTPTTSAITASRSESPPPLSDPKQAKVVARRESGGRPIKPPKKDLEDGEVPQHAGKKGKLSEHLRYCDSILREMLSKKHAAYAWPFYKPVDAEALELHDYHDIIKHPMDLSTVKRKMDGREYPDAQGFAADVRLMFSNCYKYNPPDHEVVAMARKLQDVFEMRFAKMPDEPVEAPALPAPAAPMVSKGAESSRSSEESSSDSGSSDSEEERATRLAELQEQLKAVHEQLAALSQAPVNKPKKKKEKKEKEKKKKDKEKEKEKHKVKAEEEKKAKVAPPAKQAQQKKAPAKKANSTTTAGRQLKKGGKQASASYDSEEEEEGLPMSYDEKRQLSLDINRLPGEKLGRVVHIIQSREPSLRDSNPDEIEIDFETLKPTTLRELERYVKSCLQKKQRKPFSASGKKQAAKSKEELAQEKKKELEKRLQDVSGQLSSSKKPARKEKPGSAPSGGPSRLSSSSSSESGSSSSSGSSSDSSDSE
# UniProt Q30KQ5: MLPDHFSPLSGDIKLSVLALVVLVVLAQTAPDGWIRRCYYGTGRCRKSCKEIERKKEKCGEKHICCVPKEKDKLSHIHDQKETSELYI
# UniProt Q16584: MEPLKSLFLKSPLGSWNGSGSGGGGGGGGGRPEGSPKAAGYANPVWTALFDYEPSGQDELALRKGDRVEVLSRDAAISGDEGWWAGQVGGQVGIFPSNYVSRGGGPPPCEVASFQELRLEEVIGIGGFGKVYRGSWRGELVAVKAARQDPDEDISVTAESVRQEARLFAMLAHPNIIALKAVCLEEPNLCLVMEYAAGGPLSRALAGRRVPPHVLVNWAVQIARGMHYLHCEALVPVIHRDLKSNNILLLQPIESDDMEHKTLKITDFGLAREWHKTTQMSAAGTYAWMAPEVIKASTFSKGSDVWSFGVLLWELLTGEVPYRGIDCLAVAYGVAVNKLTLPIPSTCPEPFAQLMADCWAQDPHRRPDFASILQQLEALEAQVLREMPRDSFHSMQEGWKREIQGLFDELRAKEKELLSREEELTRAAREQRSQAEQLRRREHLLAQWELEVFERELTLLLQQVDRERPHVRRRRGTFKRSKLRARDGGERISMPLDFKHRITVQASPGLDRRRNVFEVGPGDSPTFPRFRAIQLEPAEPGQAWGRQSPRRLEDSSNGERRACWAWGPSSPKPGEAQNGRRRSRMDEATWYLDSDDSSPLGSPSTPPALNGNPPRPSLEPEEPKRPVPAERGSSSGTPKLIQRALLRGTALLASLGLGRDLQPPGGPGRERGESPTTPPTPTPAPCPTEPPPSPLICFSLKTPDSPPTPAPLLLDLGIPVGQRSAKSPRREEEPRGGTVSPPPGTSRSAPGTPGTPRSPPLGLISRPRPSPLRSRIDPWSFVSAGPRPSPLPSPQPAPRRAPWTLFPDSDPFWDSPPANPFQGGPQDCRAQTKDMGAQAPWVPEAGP
# UniProt Q15126: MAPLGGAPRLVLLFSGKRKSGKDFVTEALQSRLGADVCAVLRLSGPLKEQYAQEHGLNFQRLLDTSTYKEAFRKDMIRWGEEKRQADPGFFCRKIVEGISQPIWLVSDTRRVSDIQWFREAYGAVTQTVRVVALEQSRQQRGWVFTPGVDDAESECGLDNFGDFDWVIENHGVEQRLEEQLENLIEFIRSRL
# UniProt Q15022: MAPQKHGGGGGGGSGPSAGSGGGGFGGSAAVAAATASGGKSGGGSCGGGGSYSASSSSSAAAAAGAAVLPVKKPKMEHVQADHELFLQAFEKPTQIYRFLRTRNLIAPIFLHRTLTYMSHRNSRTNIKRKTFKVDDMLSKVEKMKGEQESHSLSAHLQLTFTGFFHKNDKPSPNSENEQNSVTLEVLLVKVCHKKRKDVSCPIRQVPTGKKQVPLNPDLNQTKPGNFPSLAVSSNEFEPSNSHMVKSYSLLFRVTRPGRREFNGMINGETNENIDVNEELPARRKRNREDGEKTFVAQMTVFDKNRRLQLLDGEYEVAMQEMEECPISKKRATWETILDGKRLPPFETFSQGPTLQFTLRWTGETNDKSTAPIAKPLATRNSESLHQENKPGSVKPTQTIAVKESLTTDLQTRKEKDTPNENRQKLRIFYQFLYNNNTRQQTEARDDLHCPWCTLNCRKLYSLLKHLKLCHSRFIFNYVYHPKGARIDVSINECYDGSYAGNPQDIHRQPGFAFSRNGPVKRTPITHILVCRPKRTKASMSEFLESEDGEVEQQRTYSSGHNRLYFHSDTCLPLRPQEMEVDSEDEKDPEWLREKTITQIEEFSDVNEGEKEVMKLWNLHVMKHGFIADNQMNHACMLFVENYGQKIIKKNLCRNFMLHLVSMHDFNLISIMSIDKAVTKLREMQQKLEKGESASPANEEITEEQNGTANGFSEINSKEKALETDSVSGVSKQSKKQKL
# UniProt Q16774: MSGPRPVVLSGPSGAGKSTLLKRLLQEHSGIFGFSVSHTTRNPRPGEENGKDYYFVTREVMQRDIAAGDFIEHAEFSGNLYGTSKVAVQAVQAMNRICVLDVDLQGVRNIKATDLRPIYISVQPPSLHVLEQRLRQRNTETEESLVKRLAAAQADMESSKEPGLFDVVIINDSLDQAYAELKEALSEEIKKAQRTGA
# UniProt Q16576, whole entry: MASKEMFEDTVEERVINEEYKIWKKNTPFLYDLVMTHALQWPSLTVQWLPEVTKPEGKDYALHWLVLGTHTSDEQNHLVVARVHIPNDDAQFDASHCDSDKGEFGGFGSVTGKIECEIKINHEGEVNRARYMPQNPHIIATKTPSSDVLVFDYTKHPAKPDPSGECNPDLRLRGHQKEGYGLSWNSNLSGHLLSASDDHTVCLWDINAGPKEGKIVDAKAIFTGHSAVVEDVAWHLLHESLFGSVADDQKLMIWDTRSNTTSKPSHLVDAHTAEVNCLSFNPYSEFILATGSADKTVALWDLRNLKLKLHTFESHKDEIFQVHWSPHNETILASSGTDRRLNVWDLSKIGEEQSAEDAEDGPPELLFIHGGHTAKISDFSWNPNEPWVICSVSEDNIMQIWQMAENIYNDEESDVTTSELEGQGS
# UniProt Q15286: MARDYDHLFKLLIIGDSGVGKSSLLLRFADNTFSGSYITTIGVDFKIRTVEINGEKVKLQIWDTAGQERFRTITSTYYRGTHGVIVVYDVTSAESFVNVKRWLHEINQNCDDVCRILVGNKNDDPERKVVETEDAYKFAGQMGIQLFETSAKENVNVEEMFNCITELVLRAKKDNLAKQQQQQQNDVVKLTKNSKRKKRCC
# UniProt Q2TB10: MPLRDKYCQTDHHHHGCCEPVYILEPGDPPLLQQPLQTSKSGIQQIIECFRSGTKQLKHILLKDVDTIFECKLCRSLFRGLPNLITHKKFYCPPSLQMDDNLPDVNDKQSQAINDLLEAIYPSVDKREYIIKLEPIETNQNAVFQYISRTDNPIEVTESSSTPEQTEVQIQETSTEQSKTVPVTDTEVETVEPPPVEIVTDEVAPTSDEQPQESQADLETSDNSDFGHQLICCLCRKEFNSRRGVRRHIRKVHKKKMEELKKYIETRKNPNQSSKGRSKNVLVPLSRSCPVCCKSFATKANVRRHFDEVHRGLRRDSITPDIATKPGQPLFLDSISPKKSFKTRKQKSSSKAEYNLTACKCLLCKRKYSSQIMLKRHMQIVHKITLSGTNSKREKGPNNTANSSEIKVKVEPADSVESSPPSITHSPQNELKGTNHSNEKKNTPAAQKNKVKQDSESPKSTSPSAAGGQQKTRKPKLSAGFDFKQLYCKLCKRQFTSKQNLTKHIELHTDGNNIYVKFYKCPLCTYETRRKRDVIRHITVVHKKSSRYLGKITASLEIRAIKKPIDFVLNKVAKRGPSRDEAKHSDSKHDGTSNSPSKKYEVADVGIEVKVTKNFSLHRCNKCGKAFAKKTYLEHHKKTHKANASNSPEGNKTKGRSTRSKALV
# UniProt Q16851: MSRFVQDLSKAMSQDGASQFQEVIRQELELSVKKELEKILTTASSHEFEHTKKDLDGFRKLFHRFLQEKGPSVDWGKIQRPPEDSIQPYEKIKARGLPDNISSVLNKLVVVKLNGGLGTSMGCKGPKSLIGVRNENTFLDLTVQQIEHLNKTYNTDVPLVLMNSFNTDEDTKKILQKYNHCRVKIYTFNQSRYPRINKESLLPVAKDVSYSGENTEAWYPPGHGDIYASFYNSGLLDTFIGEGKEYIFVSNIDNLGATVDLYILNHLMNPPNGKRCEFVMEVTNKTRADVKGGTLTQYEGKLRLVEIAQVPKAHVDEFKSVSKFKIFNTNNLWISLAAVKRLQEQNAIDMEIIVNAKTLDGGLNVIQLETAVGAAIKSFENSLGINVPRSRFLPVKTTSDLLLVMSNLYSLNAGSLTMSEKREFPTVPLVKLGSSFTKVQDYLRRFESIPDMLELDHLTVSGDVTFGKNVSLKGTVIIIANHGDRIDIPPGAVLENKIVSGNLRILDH
# UniProt Q16206: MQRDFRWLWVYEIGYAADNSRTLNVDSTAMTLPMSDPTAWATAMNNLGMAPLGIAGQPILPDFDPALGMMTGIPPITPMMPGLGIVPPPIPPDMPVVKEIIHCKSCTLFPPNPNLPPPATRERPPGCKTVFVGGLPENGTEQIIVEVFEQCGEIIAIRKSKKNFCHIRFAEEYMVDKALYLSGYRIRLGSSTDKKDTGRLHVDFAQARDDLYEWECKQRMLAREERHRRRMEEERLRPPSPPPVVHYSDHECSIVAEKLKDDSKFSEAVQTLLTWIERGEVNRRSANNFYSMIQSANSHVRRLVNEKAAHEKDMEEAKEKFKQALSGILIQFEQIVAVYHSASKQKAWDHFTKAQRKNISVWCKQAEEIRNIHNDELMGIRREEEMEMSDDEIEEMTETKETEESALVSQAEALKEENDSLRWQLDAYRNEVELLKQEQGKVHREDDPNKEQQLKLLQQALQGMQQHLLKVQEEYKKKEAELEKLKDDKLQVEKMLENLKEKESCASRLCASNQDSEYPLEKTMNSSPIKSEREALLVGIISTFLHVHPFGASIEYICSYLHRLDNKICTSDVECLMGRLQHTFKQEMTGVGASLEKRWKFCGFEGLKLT
# UniProt Q16670: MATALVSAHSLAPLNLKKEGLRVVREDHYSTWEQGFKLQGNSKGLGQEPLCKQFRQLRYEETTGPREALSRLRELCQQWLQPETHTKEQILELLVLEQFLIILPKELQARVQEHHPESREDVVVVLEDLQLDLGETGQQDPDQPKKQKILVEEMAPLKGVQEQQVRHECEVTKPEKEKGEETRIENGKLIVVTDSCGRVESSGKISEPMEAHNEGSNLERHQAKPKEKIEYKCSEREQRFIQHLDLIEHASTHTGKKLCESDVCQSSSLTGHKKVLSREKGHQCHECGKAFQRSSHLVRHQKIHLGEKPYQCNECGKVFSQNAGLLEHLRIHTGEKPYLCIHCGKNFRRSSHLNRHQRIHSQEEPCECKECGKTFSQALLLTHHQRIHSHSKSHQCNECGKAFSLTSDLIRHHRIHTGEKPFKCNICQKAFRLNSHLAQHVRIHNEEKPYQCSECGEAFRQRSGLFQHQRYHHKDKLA
# UniProt Q3KNV8: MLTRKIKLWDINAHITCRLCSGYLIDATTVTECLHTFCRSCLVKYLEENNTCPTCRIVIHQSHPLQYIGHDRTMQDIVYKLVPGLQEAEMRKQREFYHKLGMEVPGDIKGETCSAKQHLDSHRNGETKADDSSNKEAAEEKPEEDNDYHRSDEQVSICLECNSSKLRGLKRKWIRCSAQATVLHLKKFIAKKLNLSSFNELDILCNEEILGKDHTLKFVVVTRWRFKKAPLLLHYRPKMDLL
# UniProt Q16864, whole entry: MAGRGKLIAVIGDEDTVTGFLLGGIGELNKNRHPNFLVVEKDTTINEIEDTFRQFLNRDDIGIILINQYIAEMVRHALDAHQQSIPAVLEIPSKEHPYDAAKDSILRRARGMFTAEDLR
# Compound: Cc1nc(Nc2ncc(C(=O)Nc3c(C)cccc3Cl)s2)cc(N2CCN(CCO)CC2)n1 [dasatinib]
# Experiment: log2 fold change of tryptic peptide abundance, ligand vs vehicle (limited proteolysis) (log2 ratio); higher = more trypsin-susceptible (destabilized)
# Settings: ligand concentration: 5 uM; sample: K562 cleared lysate
row,Target,log2 fold change
1,"UniProt Q29980 (peptide sequence: VCEIHEDSSTR, peptide start residue: 118)",0.03
2,"SSX2 (peptide sequence: RPTVGAQIPEKIQK, peptide start residue: 10) (UniProt Q16385)",-0.137
3,"ZNF146 (peptide sequence: CSECGTAFGQK, peptide start residue: 158) (UniProt Q15072)",0.532
4,"TST (peptide sequence: FQLVDSR, peptide start residue: 177) (UniProt Q16762)",0.302
5,"SEC23A (peptide sequence: HLLQAPVDDAQEILHSR, peptide start residue: 683) (UniProt Q15436)",0.445
6,"EEA1 (peptide sequence: LREAQNDLEQVLR, peptide start residue: 504) (UniProt Q15075)",0.485
7,"DHCR24 (peptide sequence: LTQGETLR, peptide start residue: 368) (UniProt Q15392)",0.277
8,"ARHGEF6 (peptide sequence: LIIEETR, peptide start residue: 696) (UniProt Q15052)",0.163
9,"BRD3 (peptide sequence: DLEDGEVPQHAGKK, peptide start residue: 292) (UniProt Q15059)",-0.25
10,"MORF4L2 (peptide sequence: QKTPGNGDGGSTSEAPQPPRK, peptide start residue: 80) (UniProt Q15014)",-0.712
11,"UniProt Q30KQ5 (peptide sequence: SCKEIER, peptide start residue: 48)",-0.0976
12,"UniProt Q16584 (peptide sequence: ITVQASPGLDR, peptide start residue: 502)",-0.521
13,"PMVK (peptide sequence: LVLLFSGKR, peptide start residue: 10) (UniProt Q15126)",0.267
14,"EML3 (peptide sequence: RNSSSSSSPSERPR, peptide start residue: 154) (UniProt Q32P44)",1.89
15,"SUZ12 (peptide sequence: TFKVDDMLSK, peptide start residue: 131) (UniProt Q15022)",-0.74
16,"UniProt Q2TAC6 (peptide sequence: KREESLEAK, peptide start residue: 879)",-0.281
17,"GUK1 (peptide sequence: VAVQAVQAMNR, peptide start residue: 86) (UniProt Q16774)",0.0872
18,"RBBP7 (peptide sequence: RLNVWDLSK, peptide start residue: 340) (UniProt Q16576)",-0.403
19,"UniProt Q15286 (peptide sequence: WLHEINQNCDDVCR, peptide start residue: 102)",-0.567

row,Target,log2 fold change
1,"ADRM1 (peptide sequence: DKKDEEEDMSLD, peptide start residue: 396) (UniProt Q16186)",0.531
2,"TAF1A (peptide sequence: TSANISALIK, peptide start residue: 222) (UniProt Q15573)",0.11
3,"RAB11B (peptide sequence: NILTEIYR, peptide start residue: 167) (UniProt Q15907)",0.185
4,"CCDC85B (peptide sequence: DLCCFLDSER, peptide start residue: 79) (UniProt Q15834)",0.193
5,"UniProt Q15397 (peptide sequence: TIAFAHDSTR, peptide start residue: 172)",0.351
6,"UniProt Q3KP31 (peptide sequence: LCEGKEGSQCAENFSPNLSVTKK, peptide start residue: 71)",0.291
7,"MAPKAPK3 (peptide sequence: LTDFGFAK, peptide start residue: 205) (UniProt Q16644)",0.192
8,"AAK1 (peptide sequence: MFVNNEHDLQVCKR, peptide start residue: 76) (UniProt Q2M2I8)",-0.247
9,"ZNF800 (peptide sequence: YEVADVGIEVK, peptide start residue: 600) (UniProt Q2TB10)",-0.427
10,"UGP2 (peptide sequence: FLQEKGPSVDWGK, peptide start residue: 65) (UniProt Q16851)",0.333
11,"UniProt Q16206 (peptide sequence: DDLYEWECK, peptide start residue: 209)",-0.24
12,"LRRC41 (peptide sequence: CAAALMASR, peptide start residue: 297) (UniProt Q15345)",0.34
13,"HNRNPUL2 (peptide sequence: KEVEGDDVPESIMLEMK, peptide start residue: 577) (UniProt Q1KMD3)",-0.131
14,"UniProt Q16670 (peptide sequence: FIQHLDLIEHASTHTGK, peptide start residue: 240)",-0.621
15,"PCGF3 (peptide sequence: IVIHQSHPLQYIGHDR, peptide start residue: 57) (UniProt Q3KNV8)",0.334
16,"HADH (peptide sequence: LVAENKFGK, peptide start residue: 296) (UniProt Q16836)",0.274
17,"ATP6V1F (peptide sequence: NRHPNFLVVEK, peptide start residue: 31) (UniProt Q16864)",-0.0482
18,"SETDB1 (peptide sequence: AVTNCESLVKDFYSK, peptide start residue: 88) (UniProt Q15047)",0.185

# Reformatted: results already given.
row	Target	log2 fold change
1	UniProt Q29980 (peptide sequence: VCEIHEDSSTR, peptide start residue: 118)	0.03
9	ZNF800 (peptide sequence: YEVADVGIEVK, peptide start residue: 600) (UniProt Q2TB10)	-0.427
14	UniProt Q16670 (peptide sequence: FIQHLDLIEHASTHTGK, peptide start residue: 240)	-0.621

# From the supplement of paper PMC12819154, “High-throughput peptide-centric local stability assay extends protein–ligand identification to membrane proteins, tissues and bacteria” (Nature Structural & Molecular Biology, 2025)
